{"source": "PubChem BioAssay AID1671195 (Yale University, 2021)", "assay": "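Regulators of LDL receptor activity judged by labelled LDL uptake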 (primary screen)", "cells": "human Huh7 hepatoma cells", "reagents": "siRNA pool against human genes, 18 nM", "time to read-out": "about 2 to 2.5 days of knockdown, then 8 h LDL uptake", "challenge": "DiI-labelled LDL at 30 µg/ml for 8 h, in lipoprotein-deficient serum medium", "measured": "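Per-cell DiI-LDL intensity by automated imaging; well means scaled to the plate median and given as a robust z-score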", "direction": "robust z-score: higher = more LDL uptake after knockdown", "call rule": "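a gene counts as active if at least two replicate z-scores exceed ±2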", "note": "In all, the deposit lists about 22,000 reagents; shown is a random part of them. About 1,510 of them (6.9%) count as active. 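Active includes knockdowns raising or lowering LDL uptake; positive z-scores mean more uptake, negative mean less.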 Reagent sequences are not shown."}
{"gene knocked down": "SNX25", "robust z-score, replicate 1": -0.0457, "robust z-score, replicate 2": -0.395, "robust z-score, replicate 3": 0.0129, "activity call": "inactive"}
{"gene knocked down": "MAPKAPK2", "robust z-score, replicate 1": -1.09, "robust z-score, replicate 2": -0.341, "robust z-score, replicate 3": -0.396, "activity call": "inactive"}
{"gene knocked down": "RNASE2", "robust z-score, replicate 1": 0.185, "robust z-score, replicate 2": 0.211, "robust z-score, replicate 3": 0.935, "activity call": "inactive"}
{"gene knocked down": "TRPV6", "robust z-score, replicate 1": 0.0691, "robust z-score, replicate 2": -0.286, "robust z-score, replicate 3": -0.148, "activity call": "inactive"}
{"gene knocked down": "MAP1LC3B", "robust z-score, replicate 1": -0.247, "robust z-score, replicate 2": -0.135, "robust z-score, replicate 3": -0.583, "activity call": "inactive"}
{"gene knocked down": "MRPS26", "robust z-score, replicate 1": 0.214, "robust z-score, replicate 2": 0.0151, "robust z-score, replicate 3": 0.303, "activity call": "inactive"}
{"gene knocked down": "SERPINB3", "robust z-score, replicate 1": 1.76, "robust z-score, replicate 2": -0.0791, "robust z-score, replicate 3": 1.24, "activity call": "inactive"}
{"gene knocked down": "PHB1P3", "robust z-score, replicate 1": 0.269, "robust z-score, replicate 2": -0.579, "robust z-score, replicate 3": -0.474, "activity call": "inactive"}
{"gene knocked down": "RPL26P12", "robust z-score, replicate 1": -1.2, "robust z-score, replicate 2": -1.33, "robust z-score, replicate 3": -1.24, "activity call": "inactive"}
{"gene knocked down": "USP40", "robust z-score, replicate 1": -0.0703, "robust z-score, replicate 2": -0.73, "robust z-score, replicate 3": 0.0538, "activity call": "inactive"}
{"gene knocked down": "LOC441126 (retired record)", "robust z-score, replicate 1": -1.01, "robust z-score, replicate 2": -1.4, "robust z-score, replicate 3": -1.19, "activity call": "inactive"}
{"gene knocked down": "LDB1", "robust z-score, replicate 1": 0.00797, "robust z-score, replicate 2": 0.0844, "robust z-score, replicate 3": -1.53, "activity call": "inactive"}
{"gene knocked down": "METTL15", "robust z-score, replicate 1": 1.1, "robust z-score, replicate 2": 0.103, "robust z-score, replicate 3": -0.599, "activity call": "inactive"}
{"gene knocked down": "FOXM1", "robust z-score, replicate 1": -1.22, "robust z-score, replicate 2": -1.28, "robust z-score, replicate 3": -1.17, "activity call": "inactive"}
{"gene knocked down": "LOC400638 (retired record)", "robust z-score, replicate 1": -0.523, "robust z-score, replicate 2": -1.02, "robust z-score, replicate 3": -0.955, "activity call": "inactive"}
{"gene knocked down": "PARS2", "robust z-score, replicate 1": 2.24, "robust z-score, replicate 2": 4.84, "robust z-score, replicate 3": 5.36, "activity call": "active"}
{"gene knocked down": "CAMKV", "robust z-score, replicate 1": 1.33, "robust z-score, replicate 2": 2.93, "robust z-score, replicate 3": 1.24, "activity call": "inactive"}
{"gene knocked down": "ST6GALNAC5", "robust z-score, replicate 1": -2.19, "robust z-score, replicate 2": -2.1, "robust z-score, replicate 3": -1.97, "activity call": "active"}
{"gene knocked down": "LCN12", "robust z-score, replicate 1": 0.56, "robust z-score, replicate 2": 0.442, "robust z-score, replicate 3": 0.0971, "activity call": "inactive"}
{"gene knocked down": "ABRAXAS2", "robust z-score, replicate 1": 0.148, "robust z-score, replicate 2": 1.88, "robust z-score, replicate 3": -1.08, "activity call": "inactive"}
{"gene knocked down": "PIK3R3", "robust z-score, replicate 1": -0.332, "robust z-score, replicate 2": 0.913, "robust z-score, replicate 3": -0.347, "activity call": "inactive"}
{"gene knocked down": "CYB5D2", "robust z-score, replicate 1": 0.0502, "robust z-score, replicate 2": 0.0677, "robust z-score, replicate 3": -0.57, "activity call": "inactive"}
{"gene knocked down": "GPR171", "robust z-score, replicate 1": 2.62, "robust z-score, replicate 2": 2.26, "robust z-score, replicate 3": 2.23, "activity call": "active"}
{"gene knocked down": "MRRFP1", "robust z-score, replicate 1": -0.418, "robust z-score, replicate 2": -0.416, "robust z-score, replicate 3": -0.408, "activity call": "inactive"}

Ordered by “robust z-score, replicate 1” (high to low): some entries from above.
{"gene knocked down": "PARS2", "robust z-score, replicate 1": 2.24, "robust z-score, replicate 2": 4.84, "robust z-score, replicate 3": 5.36, "activity call": "active"}
{"gene knocked down": "LOC400638 (retired record)", "robust z-score, replicate 1": -0.523, "robust z-score, replicate 2": -1.02, "robust z-score, replicate 3": -0.955, "activity call": "inactive"}
{"gene knocked down": "FOXM1", "robust z-score, replicate 1": -1.22, "robust z-score, replicate 2": -1.28, "robust z-score, replicate 3": -1.17, "activity call": "inactive"}
